This note sets out measurements from patent publication US20130142717A1, “OFFSHORE GAS SEPARATION PROCESS” (priority 2011, published 2013).

The data set is described as follows: Absorption tests of H2S/CO2 on aqueous absorbent solutions, with desorption and reabsorption. The conditions noted are these: for Loading (%) = Moles of H2S / Moles of Compound / Selectivity = (H2S/CO2) in solution / (H2S/CO2) in feed gas: 35° C., […] aqueous solution, nitrogen:carbon dioxide:hydrogen sulfide 89:10:1, 2 hours; for Capacity (%): absorption 35° C., desorption 85° C. in flowing nitrogen for 2 hours; for Selectivity-Reabsorption: selectivity after regeneration (desorption 85° C., flowing nitrogen, 2 hours).

Regarding `COCCOCCOCCNC(C)(C)C` [B, Methoxyethoxyethoxyethanol-tert-butylamine], the “Loading (%) = Moles of H2S / Moles of Compound” value is 24.2% and the “Capacity (%)” value was 98.4%.

On to `CCCCOCCOCCNC(C)(C)C` [BEETB, Butoxyethoxyethanol-tert-butylamine], for which the “Loading (%) = Moles of H2S / Moles of Compound” value is 16.8%, the “Selectivity = (H2S/CO2) in solution / (H2S/CO2) in feed gas” value stood at 90.2, the “Capacity (%)” value stood at 92.5% and the Selectivity-Reabsorption worked out at 197.6.

As for `CC(C)(C)NCCOCCNC(C)(C)C` [Bis-SE, Bis-(t-butylaminoethyl)ether, reference compound], the “Loading (%) = Moles of H2S / Moles of Compound” value was 28.2%, the “Selectivity = (H2S/CO2) in solution / (H2S/CO2) in feed gas” value is 16.7, the “Capacity (%)” value amounted to 80% and the Selectivity-Reabsorption is 25.2.

As for `CCOCCOCCNC(C)(C)C` [EEETB, Ethoxyethoxyethanol-tert-butylamine], the “Loading (%) = Moles of H2S / Moles of Compound” value was 13.1%, the “Selectivity = (H2S/CO2) in solution / (H2S/CO2) in feed gas” value stood at 75.4, the “Capacity (%)” value was 89.3% and the Selectivity-Reabsorption amounted to 86.7.

As for `COCCOCCNC(C)(C)C` [MEETB, Methoxyethoxyethanol-tert-butylamine], the “Loading (%) = Moles of H2S / Moles of Compound” value turned out to be 21.57%, the “Selectivity = (H2S/CO2) in solution / (H2S/CO2) in feed gas” value was 56.01, the “Capacity (%)” value is given as 67.4% and the Selectivity-Reabsorption was 59.6.

In the case of `CC(C)(C)NCCNC(C)(C)C` [TBA-NH—(CH2)2—HN-TBA, reference compound], the “Loading (%) = Moles of H2S / Moles of Compound” value was found to be 9.8%, the “Selectivity = (H2S/CO2) in solution / (H2S/CO2) in feed gas” value was 26.2, the “Capacity (%)” value amounted to 46% and the Selectivity-Reabsorption amounted to 20.2.

As for “Ethoxyethanol-tert-butylamine (tert-butylamino-ethoxy-ethanol)”, the “Loading (%) = Moles of H2S / Moles of Compound” value came to 16.3% and the “Capacity (%)” value is 60%.
